Laboratory results: patent US20260034192A1 (University of Saskatchewan, priority 2022, published 2026)

Test system: Hereford crossbred heifers
Test: Cetrorelix pre-treatment before kisspeptin-10 in low-progesterone heifer model (Example 1)
Assay type: in vivo, cattle
Settings: Day 6 of wave, Kp10 3 x 15 mg iv, Cetrorelix 20 μg/Kg im 3 h before Kp10, mean ± SEM
Experimental: Methods: The human Kisspeptin-10 (hKP-10) peptide (YNWNSFGLRF-NH2; SEQ ID NO: 1) was custom synthetized at >95% of purity (MW: 1318.44 g/mol) by GenScript USA Inc, Piscataway, NJ, USA. The sequence is based on the predicted C-terminal region (112-121-NH2) of human metastin (Gen Bank accession #AY117143) and has been previously used in cattle. The peptide was previously tested for solubility and was dissolved in ultrapure water at 10 mg/mL.
The heifers were maintained in outdoor pens at the University of Saskatchewan Goodale Research Farm (52° north and 106° west). Heifers were fed barley silage and had hay and water ad libitum. […]
Immediately after ultrasound examination, heifers were given PGF2a twice at an interval of 12-hours. […] The day of wave emergence (Day 0) was defined as the day when the follicle of wave was first recorded (4 to 5 mm in diameter) with concurrent increase in diameter. […] The progesterone device was withdrawn on Day 12 (i.e., thirteen days after insertion) and ultrasound examinations were continued until ovulation was detected. […]
The plasma samples from both experiments were analyzed for LH and progesterone concentration at the University of Wisconsin (Madison, WI, USA) in Dr O. J. Ginther's Research Laboratory. Plasma LH concentrations were measured with a validated radioimmunoassay for cattle (Bolt et al. 1990) with modifications as reported Ginther et al. 1999). […]

Row | Compound | Plasma progesterone on the day of treatment (Day 6)
1 | CC(=O)N[C@H](Cc1ccc2ccccc2c1)C(=O)N[C@H](Cc1ccc(Cl)cc1)C(=O)N[C@H](Cc1cccnc1)C(=O)N[C@@H](CO)C(=O)N[C@@H](Cc1ccc(O)cc1)C(=O)N[C@H](CCCNC(N)=O)C(=O)N[C@@H](CC(C)C)C(=O)N[C@@H](CCCNC(=N)N)C(=O)N1CCC[C@H]1C(=O)N[C@H](C)C(N)=O [Cetrorelix, N-acetyl-3-(2-naphthyl)-D-alanyl-4-chloro-D-phenylalanyl-3-(3-pyridyl)-D-alanyl-L-seryl-L-tyrosyl-D-citrullyl-L-leucyl-L-arginyl-L-prolyl-D-alaninamide] (Ac-[d2Nal][dPhe(4-Cl)][d3Pal]SY[dCit]LRP[dA]-NH2) | 1.41 ± 0.56
2 | Kp10: human Kisspeptin-10 (hKP-10) peptide YNWNSFGLRF-NH2; SEQ ID NO: 1 | 1.86 ± 0.43

Square brackets hold non-standard residues; d marks the D form. Peptide text beside a SMILES is read from it. dPhe(4-Cl) = N[C@H](Cc1ccc(Cl)cc1)C(=O)O; d2Nal = N[C@H](Cc1ccc2ccccc2c1)C(=O)O; dCit = NC(=O)NCCC[C@@H](N)C(=O)O; d3Pal = N[C@H](Cc1cccnc1)C(=O)O
